Measured values reported in patent US11878005B2, “Formulations of deferasirox and methods of making the same” (AustinPx, LLC, priority 2015, dated 2024).
Some results were stated once for a whole list of compounds, not compound by compound.

Test: In vitro dissolution, USP Apparatus 2, 0.1N HCl then pH 6.8
Format: physicochemical
Conditions: pH 6.8 buffer, 360 mg DFX equivalent, up to 8 hour

**Q.** Which “release of theoretical drug content after media change” value does the source give for `O=C(O)c1ccc(-n2nc(-c3ccccc3O)nc2-c2ccccc2O)cc1` [DFX, Deferasirox] here?
**A.** Its value is at most 25%.
